Source: PubChem BioAssay AID1159506 (NCATS, 2015).

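Luminescence from an EWS-FLI1 target-promoter (NR0B1) reporter, set against a CMV-promoter reporter, two days after silencing single genes in TC32 Ewing sarcoma cells.
Each siRNA was applied at 20 nM.
A z-score of the log NR0B1-over-CMV signal, less the median of siRNAs with the same seed; more negative means a stronger specific loss of the NR0B1 reporter.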

This is part of the screen; most of the strongest results are not listed here.
Sequences are the guide (antisense) strand, without overhang.

UGACCAACCUCUUUGACUA against GNRH1 gave seed-corrected z-score 0.2438.
UUAGAGAAGUUGCAAUACC against AK9 gave seed-corrected z-score -0.3335.
UAUGUUACAGAAAUCAGCC against SMG6 gave seed-corrected z-score 0.4745.
UCUUCAUAAAGAACCAUUC against CREG2 gave seed-corrected z-score 0.6667.
UUCUUUUGCGCCAUCAUCG against ATOH1 gave seed-corrected z-score -0.4813.
UCCGUUUAUGCCUACGUCA against PCDH11Y gave seed-corrected z-score 0.1446.
UAGGAGACUUGUCCUUUGG against IFI27L1 gave seed-corrected z-score -1.406.
UCUUUGUCCCAAAAUAACC against BPIFC gave seed-corrected z-score -0.3798.
UUACUGAGUCCUUUCACGG against USP16 gave seed-corrected z-score -0.2418.
UUCCGCAACAGAAACAGCC against BFSP1 gave seed-corrected z-score -0.4485.
UGAGGAAGAACGAUCGUUC against KLHDC8A gave seed-corrected z-score 1.105.
AGAGCGAACAUAGGAGUCC against TRAPPC1 gave seed-corrected z-score -0.1018.
AAGUGAUCCACAAUACGGG against OR2Z1 gave seed-corrected z-score 5.391.
UAGUCACCCACAUGAAUGU against CYP27B1 gave seed-corrected z-score 1.952.
UUUACCUUGUAAUAAUUCC against EIF3E gave seed-corrected z-score -0.8674.
AUCGUUCUUUAUAAAGUUG against BRMS1L gave seed-corrected z-score 0.4878.
UCGGCUUCAUGCAUGUUGC against GFAP gave seed-corrected z-score -0.4263.
AGAGUGACCACAUGGUUGG against RXFP4 gave seed-corrected z-score 0.4617.
UGAACAUACACGUAUAUUU against MYDGF gave seed-corrected z-score 0.5463.
UUGGUAGUGAUGACAUAGC against KCNAB3 gave seed-corrected z-score -0.6403.
UGCAGUUCCACGAAGAUGC against EPHA10 gave seed-corrected z-score 0.0562.
ACACGUAGAAGCUCUUUCC against TTF2 gave seed-corrected z-score 0.5323.
UUGGGCAAGAGAAGGUUCC against BCORL1 gave seed-corrected z-score -0.4463.
UCAGGUAGAGGAUUGCCGC against PLP2 gave seed-corrected z-score 0.09327.
UUUCAGACAUACUGGAUCC against TMEM260 gave seed-corrected z-score 0.02308.
UCUGUCAUAGGGAGACUCG against TMEM59L gave seed-corrected z-score -0.2931.
UCCCUGUGGAGUCAUUACC against SNRPN gave seed-corrected z-score -0.3309.
AUCAUUUUUAUAUUGUUCC against PMCH gave seed-corrected z-score 1.306.
UUAUUGGAAUUUCUAACCC against FAAP24 gave seed-corrected z-score 0.8326.
UUCCGUGUAACUGUGGAUG against MAATS1 gave seed-corrected z-score 0.6578.
UGGGUUACAAGACCUGUCG against THSD7A gave seed-corrected z-score -0.9988.
UGACUCUUUAGGAAAAGCC against LOC283710 gave seed-corrected z-score -0.2065.
UCUUUGAUCUUAACCCUCC against TCP10L2 gave seed-corrected z-score 1.061.
UCAAGAACAACUUGCAAUG against GJA4 gave seed-corrected z-score -0.3789.
UCCUCUAUAGGAAACUUCG against PCDHGA10 gave seed-corrected z-score 0.01548.
AUAAGAAGAAUCACCAGGC against SMIM24 gave seed-corrected z-score -1.751.
UCCUGUAUGAGCUCCUUGA against SLC16A3 gave seed-corrected z-score 1.962.
UAAACUCCCGGGACAUUGG against PPM1J gave seed-corrected z-score -0.4284.
UUCUGUACGAGAAAGGAUC against KCTD12 gave seed-corrected z-score 0.2346.
UUUGGGUUGAAGGGUGGAG against SGK2 gave seed-corrected z-score -1.333.
AUUUGUGAGUGGAUCAUCC against ACTN1 gave seed-corrected z-score 1.31.
UGCGUUGAGAGGUGGAUCU against CADM3 gave seed-corrected z-score -0.08647.
UCUAUUCUCAGGUAUGCUG against DENND1A gave seed-corrected z-score 0.06227.
UCCAAUUAAGCCUUUGCGC against GLB1L2 gave seed-corrected z-score 0.5529.
UUACAGAUGUCAUACAUCC against STC1 gave seed-corrected z-score 0.08661.
UUGGAGUUGAUGAUUUGCG against ACTN4 gave seed-corrected z-score -0.141.

The first 5 entries again:

{"sirna": "UGACCAACCUCUUUGACUA", "target gene": "GNRH1", "seed-corrected z-score": "0.2438"}
{"sirna": "UUAGAGAAGUUGCAAUACC", "target gene": "AK9", "seed-corrected z-score": "-0.3335"}
{"sirna": "UAUGUUACAGAAAUCAGCC", "target gene": "SMG6", "seed-corrected z-score": "0.4745"}
{"sirna": "UCUUCAUAAAGAACCAUUC", "target gene": "CREG2", "seed-corrected z-score": "0.6667"}
{"sirna": "UUCUUUUGCGCCAUCAUCG", "target gene": "ATOH1", "seed-corrected z-score": "-0.4813"}